Drawing on publication PMC6219832, this text covers binding for six molecules.

Chains of the proteins cited; added tags and fusions are not shown.
UniProt O14744: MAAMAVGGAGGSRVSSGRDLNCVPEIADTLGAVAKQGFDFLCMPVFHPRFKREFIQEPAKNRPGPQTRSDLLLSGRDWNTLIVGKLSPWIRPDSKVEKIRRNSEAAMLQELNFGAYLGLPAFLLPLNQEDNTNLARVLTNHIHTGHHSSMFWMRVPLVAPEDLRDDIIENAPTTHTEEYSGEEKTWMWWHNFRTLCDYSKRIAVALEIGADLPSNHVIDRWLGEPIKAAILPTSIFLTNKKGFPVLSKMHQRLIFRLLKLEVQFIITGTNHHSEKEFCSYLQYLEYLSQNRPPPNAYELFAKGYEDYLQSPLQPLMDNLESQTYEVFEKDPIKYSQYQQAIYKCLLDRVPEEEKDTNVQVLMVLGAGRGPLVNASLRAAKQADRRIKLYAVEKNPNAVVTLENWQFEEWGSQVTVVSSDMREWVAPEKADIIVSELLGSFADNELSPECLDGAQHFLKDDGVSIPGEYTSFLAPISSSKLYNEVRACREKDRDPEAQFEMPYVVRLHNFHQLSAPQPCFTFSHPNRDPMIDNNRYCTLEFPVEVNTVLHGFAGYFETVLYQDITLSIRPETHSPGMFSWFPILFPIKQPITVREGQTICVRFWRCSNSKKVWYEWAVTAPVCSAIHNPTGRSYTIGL

No constants are given. Whether binding was seen depends on the method and setting. For part of these data: In cells and extracts the contact can be indirect. Some entries that bind do so weakly or less than the wild type. For part of these data: Where a sequence is shown, tags or fusion partners need not be part of it.

In assay [1] the target is T1, Flag-DUSP14 (wild-type), expressed in Jurkat (J-TAg clone) T cells (human) (UniProt O95147).
T1 sequence: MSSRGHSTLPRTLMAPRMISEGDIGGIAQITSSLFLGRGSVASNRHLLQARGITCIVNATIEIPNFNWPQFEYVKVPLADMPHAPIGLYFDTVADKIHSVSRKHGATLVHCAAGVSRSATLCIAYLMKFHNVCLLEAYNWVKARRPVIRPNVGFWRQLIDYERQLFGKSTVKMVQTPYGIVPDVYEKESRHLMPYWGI
The assay is described as follows: co-IP; Jurkat (J-TAg clone) T cells transfected with Flag-DUSP14 wild-type or 3R→K, stimulated with anti-CD3 antibody; anti-Flag immunoprecipitation, immunoblot with anti-PRMT5.

The target of assay [2] is T2, Flag-DUSP14 (3R→K) mutant, expressed in Jurkat (J-TAg clone) T cells (human) (UniProt O95147).
T2 sequence: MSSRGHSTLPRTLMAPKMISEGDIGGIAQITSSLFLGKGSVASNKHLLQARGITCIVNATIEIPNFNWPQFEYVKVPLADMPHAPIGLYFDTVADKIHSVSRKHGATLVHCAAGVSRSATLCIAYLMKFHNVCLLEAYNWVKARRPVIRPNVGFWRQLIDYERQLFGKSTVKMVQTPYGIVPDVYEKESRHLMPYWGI
The description is as above.

The target in assay [3] is T3, Myc-DUSP14, expressed in HEK293T cells (human) (UniProt O95147).
T3 sequence: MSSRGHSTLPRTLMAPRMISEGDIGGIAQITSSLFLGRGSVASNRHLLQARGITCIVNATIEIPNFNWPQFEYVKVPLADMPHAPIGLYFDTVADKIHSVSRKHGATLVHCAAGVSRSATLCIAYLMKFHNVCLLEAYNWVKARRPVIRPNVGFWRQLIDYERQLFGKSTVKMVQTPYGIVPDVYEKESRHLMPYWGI
The assay is described as follows: AlphaScreen or HTRF; Alpha technology; lysates of HEK293T cells cotransfected with Myc-DUSP14 and Flag-PRMT5, anti-Myc acceptor beads 60 min, then anti-Flag donor beads 60 min; proximity <200 nm.

In assay [4] the target is T3, Myc-DUSP14, expressed in HEK293T cells (human). The assay is described as follows: co-IP; HEK293T cells cotransfected with Myc-DUSP14 and Flag-PRMT5; lysates immunoprecipitated with anti-Flag or anti-DUSP14 antibody, immunoblot.
In assay [5] the target is T4, Flag-DUSP14 (3R→K) mutant, expressed in HEK293T cells (human) (UniProt O95147).
T4 sequence: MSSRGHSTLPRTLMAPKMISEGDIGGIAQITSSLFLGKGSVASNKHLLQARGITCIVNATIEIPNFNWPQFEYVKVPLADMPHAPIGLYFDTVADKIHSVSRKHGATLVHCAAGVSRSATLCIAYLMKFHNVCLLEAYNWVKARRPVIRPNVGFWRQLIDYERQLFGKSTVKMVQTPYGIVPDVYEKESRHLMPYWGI
The assay can be described thus: co-IP; HEK293T cells cotransfected with Myc-PRMT5 plus Flag-DUSP14 wild-type or 3R→K; anti-Flag immunoprecipitation, immunoblot with anti-PRMT5.

Assay [6] deals with T5, Flag-DUSP14 (wild-type), expressed in HEK293T cells (human) (UniProt O95147).
T5 sequence: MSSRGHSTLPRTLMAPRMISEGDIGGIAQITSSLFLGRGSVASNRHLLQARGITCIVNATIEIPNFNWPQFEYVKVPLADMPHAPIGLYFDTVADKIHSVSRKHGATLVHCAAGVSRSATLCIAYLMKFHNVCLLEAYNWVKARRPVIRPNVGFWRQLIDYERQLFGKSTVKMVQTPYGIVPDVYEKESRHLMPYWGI
Described as above.

In assay [7] the target is T5, Flag-DUSP14 (wild-type), expressed in HEK293T cells (human). The assay can be described thus: proximity ligation; in situ PLA (Duolink) in cotransfected HEK293T cells with anti-Flag and anti-Myc antibodies; proximity <40 nm.
The target in assay [8] is T6, endogenous DUSP14 of HEK293T cells (human (endogenous in HEK293T)) (UniProt O95147).
T6 sequence: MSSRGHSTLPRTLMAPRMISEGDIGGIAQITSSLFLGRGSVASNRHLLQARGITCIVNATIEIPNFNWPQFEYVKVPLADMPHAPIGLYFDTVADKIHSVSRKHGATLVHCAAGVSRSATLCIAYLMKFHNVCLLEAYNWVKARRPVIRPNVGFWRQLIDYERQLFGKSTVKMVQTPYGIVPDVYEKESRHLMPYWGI
The assay can be described thus: co-IP; endogenous proteins in HEK293T lysate; normal serum as control.

Assay [9] has as its target Flag-PRMT5, expressed in HEK293T cells (UniProt O14744). The assay is described as follows: co-IP; HEK293T cells cotransfected with Myc-DUSP14 and Flag-PRMT5; lysates immunoprecipitated with anti-Flag or anti-DUSP14 antibody, immunoblot.
In assay [10] the target is T7, Flag-TAB1, expressed in HEK293T cells (UniProt Q15750).
T7 sequence: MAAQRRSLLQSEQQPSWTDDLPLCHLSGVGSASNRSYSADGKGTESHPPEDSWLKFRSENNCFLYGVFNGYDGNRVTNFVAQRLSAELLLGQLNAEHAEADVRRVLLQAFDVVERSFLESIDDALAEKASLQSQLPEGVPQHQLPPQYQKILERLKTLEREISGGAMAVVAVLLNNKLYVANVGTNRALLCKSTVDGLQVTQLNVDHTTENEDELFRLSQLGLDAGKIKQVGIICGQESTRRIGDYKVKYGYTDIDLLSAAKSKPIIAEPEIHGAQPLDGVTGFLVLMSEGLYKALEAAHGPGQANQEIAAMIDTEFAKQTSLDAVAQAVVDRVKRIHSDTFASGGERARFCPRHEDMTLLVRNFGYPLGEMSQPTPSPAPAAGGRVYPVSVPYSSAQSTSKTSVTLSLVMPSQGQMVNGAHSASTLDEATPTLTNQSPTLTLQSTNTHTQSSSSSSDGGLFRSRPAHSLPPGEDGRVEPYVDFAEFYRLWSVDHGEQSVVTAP
The assay is described as follows: proximity ligation; in situ PLA (Duolink) in cotransfected HEK293T cells with anti-Flag and anti-Myc antibodies; proximity <40 nm.

Assay [11] deals with T8, Flag-TAK1, expressed in HEK293T cells (UniProt O43318).
T8 sequence: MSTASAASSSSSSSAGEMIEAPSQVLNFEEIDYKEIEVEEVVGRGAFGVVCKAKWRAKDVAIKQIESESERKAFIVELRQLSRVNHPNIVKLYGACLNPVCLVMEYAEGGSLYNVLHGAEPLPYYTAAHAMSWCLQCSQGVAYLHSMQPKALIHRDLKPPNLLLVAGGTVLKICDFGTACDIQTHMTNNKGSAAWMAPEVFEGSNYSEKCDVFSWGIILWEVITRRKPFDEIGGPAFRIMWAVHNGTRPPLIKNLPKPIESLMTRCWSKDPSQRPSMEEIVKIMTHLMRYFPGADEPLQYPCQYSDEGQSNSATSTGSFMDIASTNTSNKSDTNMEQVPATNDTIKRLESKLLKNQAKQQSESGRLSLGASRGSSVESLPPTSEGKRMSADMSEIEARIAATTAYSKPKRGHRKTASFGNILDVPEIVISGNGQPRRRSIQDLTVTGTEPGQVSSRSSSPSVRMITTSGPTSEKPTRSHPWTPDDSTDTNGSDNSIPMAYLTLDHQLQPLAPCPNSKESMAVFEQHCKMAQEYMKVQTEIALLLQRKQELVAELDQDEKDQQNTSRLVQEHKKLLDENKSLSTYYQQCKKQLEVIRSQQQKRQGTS
The assay is described as above.

With “endogenous PRMT5 of Jurkat (J-TAg clone) T cells (from UniProt O14744 1-637) (enzyme)”, the binding result in [1] and in [2] was “binds” in each case.
Regarding “Flag-PRMT5, expressed in HEK293T cells (from UniProt O14744 1-637) (enzyme)”, the binding entry in assay [3] and in assay [4] was “binds” throughout.
Turning to “Myc-PRMT5, expressed in HEK293T cells (from UniProt O14744 1-637) (enzyme)”, the binding entry in assay [5], in assay [6] and in [7] was “binds” throughout.
For “endogenous PRMT5 of HEK293T cells (from UniProt O14744 1-637) (enzyme)”, the binding result in assay [8] is “binds”.

B1: Myc-DUSP14, expressed in HEK293T cells (enzyme, UniProt O95147 1-198)
chain: MSSRGHSTLPRTLMAPRMISEGDIGGIAQITSSLFLGRGSVASNRHLLQARGITCIVNATIEIPNFNWPQFEYVKVPLADMPHAPIGLYFDTVADKIHSVSRKHGATLVHCAAGVSRSATLCIAYLMKFHNVCLLEAYNWVKARRPVIRPNVGFWRQLIDYERQLFGKSTVKMVQTPYGIVPDVYEKESRHLMPYWGI
For the molecule B1, the results for the binding result in assay [9], in [10] and in assay [11] were “binds”, “binds” and “no binding”, respectively.

B2: Myc-TAB1, expressed in HEK293T cells (protein, UniProt Q15750 1-504)
chain: MAAQRRSLLQSEQQPSWTDDLPLCHLSGVGSASNRSYSADGKGTESHPPEDSWLKFRSENNCFLYGVFNGYDGNRVTNFVAQRLSAELLLGQLNAEHAEADVRRVLLQAFDVVERSFLESIDDALAEKASLQSQLPEGVPQHQLPPQYQKILERLKTLEREISGGAMAVVAVLLNNKLYVANVGTNRALLCKSTVDGLQVTQLNVDHTTENEDELFRLSQLGLDAGKIKQVGIICGQESTRRIGDYKVKYGYTDIDLLSAAKSKPIIAEPEIHGAQPLDGVTGFLVLMSEGLYKALEAAHGPGQANQEIAAMIDTEFAKQTSLDAVAQAVVDRVKRIHSDTFASGGERARFCPRHEDMTLLVRNFGYPLGEMSQPTPSPAPAAGGRVYPVSVPYSSAQSTSKTSVTLSLVMPSQGQMVNGAHSASTLDEATPTLTNQSPTLTLQSTNTHTQSSSSSSDGGLFRSRPAHSLPPGEDGRVEPYVDFAEFYRLWSVDHGEQSVVTAP
As for B2, the binding entry in assay [11] is recorded as “binds”.
